Test results published in US20230203203A1 (YISSUM RESEARCH DEVELOPMENT COMPANY OF THE HEBREW …, published 2023).
Results are given in words; binding and its absence hold for the method and conditions named. Some results given as binding are weak or reduced against the parent protein; the word gives no strength.

Tests used:
human CD177 [1] = target: T1, human CD177 (human, UniProt Q8N6Q3 22-408); experiment: flow cytometry on WBCs of a lung cancer patient, CD66b+ SSC-high gate, anti-M13-PE
T1 construct: whole, on cells; On circulating human neutrophils of donors and patients; also called CD177 (on human neutrophils)
T1 sequence (looked up): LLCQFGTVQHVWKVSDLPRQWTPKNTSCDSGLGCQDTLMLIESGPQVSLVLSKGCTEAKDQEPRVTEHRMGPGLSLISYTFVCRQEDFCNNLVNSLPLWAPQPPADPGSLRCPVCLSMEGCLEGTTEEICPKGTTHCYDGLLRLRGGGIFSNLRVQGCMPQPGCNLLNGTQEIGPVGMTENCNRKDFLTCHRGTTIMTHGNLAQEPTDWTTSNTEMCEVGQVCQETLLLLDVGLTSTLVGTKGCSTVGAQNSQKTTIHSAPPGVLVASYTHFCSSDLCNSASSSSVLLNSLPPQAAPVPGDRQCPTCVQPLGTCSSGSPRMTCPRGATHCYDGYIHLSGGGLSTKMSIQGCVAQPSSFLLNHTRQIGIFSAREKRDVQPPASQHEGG

human CD177 [2] = target: T1, human CD177; experiment: flow cytometry on WBCs of a healthy volunteer, CD66b+ SSC-high gate, anti-M13-PE
human CD177 [3] = target: T1, human CD177; experiment: as the filing tells it; experiment described with the KFP-tetramer pull-down and donors' CD177 levels

Measured: binding

B1: phage presenting peptide 1.1 (KFP) (other)
chain: KFPDLDSRRLPHMSL
notes: detected with PE-conjugated anti-M13 antibody; not shown: phage coat protein pVIII flanking the inserted peptide
binds: human CD177 [1] | human CD177 [2] | human CD177 [3]

B2: phage presenting peptide 27 (LAT) (other)
chain: LATTHMVFSPDH
notes: not shown: phage coat protein pVIII flanking the inserted peptide
binds: human CD177 [1] | human CD177 [2] | human CD177 [3]

B3: phage presenting peptide SLE (other)
chain: SLESSPMAQLPQ
notes: as for B2
binds: human CD177 [1] | human CD177 [2] | human CD177 [3]

B4: phage presenting peptide ELV (other)
chain: ELVTASMPRPNN
notes: as for B2
binds: human CD177 [1] | human CD177 [2] | human CD177 [3]

B5: phage presenting peptide SEL (other)
chain: SELRSTPLLVPS
notes: as for B2
binds: human CD177 [1] | human CD177 [2] | human CD177 [3]

B6: phage presenting peptide PEL (other)
chain: PELDSKPYFPPL
notes: as for B2
binds: human CD177 [1] | human CD177 [2] | human CD177 [3]
